The list shows a part of the results.
Experiments:
Assay in all cases: log2 fold change, soluble protein after heating vs DMSO (PISA); higher = thermal stabilisation; K562 cells, 10 uM, 30 min; active = over 0.2 and 3.5 SD of the protein, either way, in both replicates (recomputed)
[1] = compound: C1=CC=C(C=C1)[C@H](COC2=CC3=C(C=C2)NC(=O)N3)NC(=O)C4=CC=CN(C4=O)CC5=CC(=C(C=C5)F)F
In short: (§1)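 Quantification of soluble protein used TMTpro 16plex LC-MS/MS, with channel sums equalised. Samples were the supernatant after 21,000xg for 90 min of pooled aliquots from K562 cells (2×10^6 cells/mL) treated with 10 μM compound for 30 min, heated for 3 min over 48°C-58°C, and extracted in PBS with 0.5% NP-40 at 4°C. Values, from duplicates, describe thermal stability against control samples on a log2 fold-change scale.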

Sequences of proteins named here, by UniProt entry; tags and fusion partners are left off. A change or cut given only in a name is not applied to a line headed by its entry.
UniProt O14639: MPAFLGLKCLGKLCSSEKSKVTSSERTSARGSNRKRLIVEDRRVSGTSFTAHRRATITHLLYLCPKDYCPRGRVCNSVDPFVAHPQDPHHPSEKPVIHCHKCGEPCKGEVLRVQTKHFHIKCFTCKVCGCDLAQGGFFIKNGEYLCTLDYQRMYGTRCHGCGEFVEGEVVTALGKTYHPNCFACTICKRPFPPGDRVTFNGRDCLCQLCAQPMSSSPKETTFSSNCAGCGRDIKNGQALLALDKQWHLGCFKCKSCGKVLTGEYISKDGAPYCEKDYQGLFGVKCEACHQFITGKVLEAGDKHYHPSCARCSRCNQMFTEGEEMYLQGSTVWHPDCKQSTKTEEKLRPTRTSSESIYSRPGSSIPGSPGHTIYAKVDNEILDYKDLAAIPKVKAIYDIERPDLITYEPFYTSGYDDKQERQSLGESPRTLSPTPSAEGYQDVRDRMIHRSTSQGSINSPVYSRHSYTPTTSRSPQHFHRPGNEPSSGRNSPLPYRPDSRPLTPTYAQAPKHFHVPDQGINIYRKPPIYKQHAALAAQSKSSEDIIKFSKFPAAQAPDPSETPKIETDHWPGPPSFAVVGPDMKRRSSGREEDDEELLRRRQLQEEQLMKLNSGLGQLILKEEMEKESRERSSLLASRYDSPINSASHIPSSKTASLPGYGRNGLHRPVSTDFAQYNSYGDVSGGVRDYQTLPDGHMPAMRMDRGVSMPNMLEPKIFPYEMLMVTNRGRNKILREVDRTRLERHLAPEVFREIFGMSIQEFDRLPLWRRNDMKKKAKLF
UniProt Q15067: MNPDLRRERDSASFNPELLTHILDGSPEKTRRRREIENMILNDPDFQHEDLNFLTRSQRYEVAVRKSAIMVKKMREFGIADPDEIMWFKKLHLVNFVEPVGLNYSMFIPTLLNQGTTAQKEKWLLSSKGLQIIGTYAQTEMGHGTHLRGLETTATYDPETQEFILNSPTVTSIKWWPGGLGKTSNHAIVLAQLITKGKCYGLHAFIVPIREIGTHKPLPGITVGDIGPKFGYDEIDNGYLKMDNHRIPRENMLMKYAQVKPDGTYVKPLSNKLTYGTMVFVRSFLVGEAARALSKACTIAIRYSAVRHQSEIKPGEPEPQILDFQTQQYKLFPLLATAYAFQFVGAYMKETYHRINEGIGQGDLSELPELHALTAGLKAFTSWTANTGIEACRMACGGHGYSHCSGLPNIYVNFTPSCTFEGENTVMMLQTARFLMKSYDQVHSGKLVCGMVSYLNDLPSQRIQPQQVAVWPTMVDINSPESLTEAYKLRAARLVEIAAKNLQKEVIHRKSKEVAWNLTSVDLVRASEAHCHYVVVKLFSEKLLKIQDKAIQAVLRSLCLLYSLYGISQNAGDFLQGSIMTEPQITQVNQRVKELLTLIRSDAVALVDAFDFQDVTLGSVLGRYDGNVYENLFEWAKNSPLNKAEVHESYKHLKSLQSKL
UniProt Q9ULC5: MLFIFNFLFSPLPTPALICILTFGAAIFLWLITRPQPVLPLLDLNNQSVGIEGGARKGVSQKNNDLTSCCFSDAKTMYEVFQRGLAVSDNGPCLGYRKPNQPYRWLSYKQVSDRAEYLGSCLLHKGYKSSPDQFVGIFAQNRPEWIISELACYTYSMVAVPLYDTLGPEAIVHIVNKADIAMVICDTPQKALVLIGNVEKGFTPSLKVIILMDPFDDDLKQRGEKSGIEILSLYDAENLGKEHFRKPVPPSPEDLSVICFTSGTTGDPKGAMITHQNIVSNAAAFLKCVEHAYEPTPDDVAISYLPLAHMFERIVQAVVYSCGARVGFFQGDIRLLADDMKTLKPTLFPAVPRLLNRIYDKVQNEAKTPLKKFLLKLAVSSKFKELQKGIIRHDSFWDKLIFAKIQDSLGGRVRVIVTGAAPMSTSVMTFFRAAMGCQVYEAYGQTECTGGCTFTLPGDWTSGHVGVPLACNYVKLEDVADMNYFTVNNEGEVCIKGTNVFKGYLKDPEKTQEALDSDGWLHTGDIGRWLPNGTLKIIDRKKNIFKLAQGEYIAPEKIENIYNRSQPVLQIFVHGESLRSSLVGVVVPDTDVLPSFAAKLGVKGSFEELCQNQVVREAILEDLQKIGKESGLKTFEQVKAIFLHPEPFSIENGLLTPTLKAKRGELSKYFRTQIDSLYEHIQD
UniProt P24666: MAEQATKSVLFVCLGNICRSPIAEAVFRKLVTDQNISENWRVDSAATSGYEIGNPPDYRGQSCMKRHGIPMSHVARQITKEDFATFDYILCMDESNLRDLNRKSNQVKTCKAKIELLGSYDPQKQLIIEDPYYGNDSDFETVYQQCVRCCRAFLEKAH
UniProt Q8IZY2: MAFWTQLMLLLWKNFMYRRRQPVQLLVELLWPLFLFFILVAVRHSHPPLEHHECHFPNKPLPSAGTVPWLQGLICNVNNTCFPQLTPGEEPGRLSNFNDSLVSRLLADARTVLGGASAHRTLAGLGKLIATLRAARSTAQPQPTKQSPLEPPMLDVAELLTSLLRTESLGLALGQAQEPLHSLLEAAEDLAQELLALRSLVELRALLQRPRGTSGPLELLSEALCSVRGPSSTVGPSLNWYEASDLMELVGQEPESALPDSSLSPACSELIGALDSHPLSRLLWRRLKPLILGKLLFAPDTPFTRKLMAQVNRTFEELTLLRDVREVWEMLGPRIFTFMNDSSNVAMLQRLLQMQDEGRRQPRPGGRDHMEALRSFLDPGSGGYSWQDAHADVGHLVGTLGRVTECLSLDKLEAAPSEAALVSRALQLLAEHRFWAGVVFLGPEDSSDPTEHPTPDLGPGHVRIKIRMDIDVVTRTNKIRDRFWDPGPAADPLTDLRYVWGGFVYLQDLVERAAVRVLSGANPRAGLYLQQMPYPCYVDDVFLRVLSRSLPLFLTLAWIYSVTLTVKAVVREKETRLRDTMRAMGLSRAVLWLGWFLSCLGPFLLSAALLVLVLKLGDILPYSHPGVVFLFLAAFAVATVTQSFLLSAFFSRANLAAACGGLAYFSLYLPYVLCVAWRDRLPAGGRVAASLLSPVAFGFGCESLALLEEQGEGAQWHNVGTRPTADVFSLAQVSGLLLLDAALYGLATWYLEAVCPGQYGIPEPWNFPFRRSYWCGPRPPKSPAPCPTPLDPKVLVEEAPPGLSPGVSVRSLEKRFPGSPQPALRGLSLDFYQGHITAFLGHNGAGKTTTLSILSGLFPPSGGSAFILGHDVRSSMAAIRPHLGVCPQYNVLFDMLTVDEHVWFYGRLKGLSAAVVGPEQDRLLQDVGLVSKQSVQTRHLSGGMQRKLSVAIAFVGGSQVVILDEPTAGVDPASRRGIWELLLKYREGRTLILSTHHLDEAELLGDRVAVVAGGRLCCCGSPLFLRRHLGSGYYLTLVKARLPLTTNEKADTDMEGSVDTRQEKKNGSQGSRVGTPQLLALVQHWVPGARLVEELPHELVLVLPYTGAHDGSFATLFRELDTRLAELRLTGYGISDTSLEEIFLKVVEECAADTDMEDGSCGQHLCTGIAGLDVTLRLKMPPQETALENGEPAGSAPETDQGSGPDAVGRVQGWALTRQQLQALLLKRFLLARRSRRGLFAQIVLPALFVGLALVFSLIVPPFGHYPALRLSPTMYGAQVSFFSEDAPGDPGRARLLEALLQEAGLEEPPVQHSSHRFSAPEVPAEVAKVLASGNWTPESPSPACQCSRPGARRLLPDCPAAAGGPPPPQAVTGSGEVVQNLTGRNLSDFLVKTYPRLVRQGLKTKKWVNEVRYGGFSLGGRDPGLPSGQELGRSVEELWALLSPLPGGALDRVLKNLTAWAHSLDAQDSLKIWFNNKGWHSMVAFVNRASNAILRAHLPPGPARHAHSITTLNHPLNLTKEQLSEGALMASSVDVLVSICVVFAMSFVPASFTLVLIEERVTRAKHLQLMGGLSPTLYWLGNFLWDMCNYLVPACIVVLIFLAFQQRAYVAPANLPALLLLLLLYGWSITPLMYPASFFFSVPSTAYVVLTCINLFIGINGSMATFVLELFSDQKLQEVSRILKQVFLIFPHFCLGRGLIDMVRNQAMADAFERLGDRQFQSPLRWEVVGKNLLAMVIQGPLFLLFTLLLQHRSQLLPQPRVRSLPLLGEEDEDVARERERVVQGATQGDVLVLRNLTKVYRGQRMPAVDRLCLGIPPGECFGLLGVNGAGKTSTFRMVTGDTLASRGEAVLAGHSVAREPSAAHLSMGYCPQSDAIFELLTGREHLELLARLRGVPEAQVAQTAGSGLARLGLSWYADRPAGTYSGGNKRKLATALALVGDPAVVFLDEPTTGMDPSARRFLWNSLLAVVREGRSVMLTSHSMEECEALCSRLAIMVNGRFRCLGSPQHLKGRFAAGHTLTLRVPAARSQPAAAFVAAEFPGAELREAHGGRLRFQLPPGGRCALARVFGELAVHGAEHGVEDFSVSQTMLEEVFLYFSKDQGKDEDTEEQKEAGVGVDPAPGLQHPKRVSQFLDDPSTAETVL
UniProt P21399: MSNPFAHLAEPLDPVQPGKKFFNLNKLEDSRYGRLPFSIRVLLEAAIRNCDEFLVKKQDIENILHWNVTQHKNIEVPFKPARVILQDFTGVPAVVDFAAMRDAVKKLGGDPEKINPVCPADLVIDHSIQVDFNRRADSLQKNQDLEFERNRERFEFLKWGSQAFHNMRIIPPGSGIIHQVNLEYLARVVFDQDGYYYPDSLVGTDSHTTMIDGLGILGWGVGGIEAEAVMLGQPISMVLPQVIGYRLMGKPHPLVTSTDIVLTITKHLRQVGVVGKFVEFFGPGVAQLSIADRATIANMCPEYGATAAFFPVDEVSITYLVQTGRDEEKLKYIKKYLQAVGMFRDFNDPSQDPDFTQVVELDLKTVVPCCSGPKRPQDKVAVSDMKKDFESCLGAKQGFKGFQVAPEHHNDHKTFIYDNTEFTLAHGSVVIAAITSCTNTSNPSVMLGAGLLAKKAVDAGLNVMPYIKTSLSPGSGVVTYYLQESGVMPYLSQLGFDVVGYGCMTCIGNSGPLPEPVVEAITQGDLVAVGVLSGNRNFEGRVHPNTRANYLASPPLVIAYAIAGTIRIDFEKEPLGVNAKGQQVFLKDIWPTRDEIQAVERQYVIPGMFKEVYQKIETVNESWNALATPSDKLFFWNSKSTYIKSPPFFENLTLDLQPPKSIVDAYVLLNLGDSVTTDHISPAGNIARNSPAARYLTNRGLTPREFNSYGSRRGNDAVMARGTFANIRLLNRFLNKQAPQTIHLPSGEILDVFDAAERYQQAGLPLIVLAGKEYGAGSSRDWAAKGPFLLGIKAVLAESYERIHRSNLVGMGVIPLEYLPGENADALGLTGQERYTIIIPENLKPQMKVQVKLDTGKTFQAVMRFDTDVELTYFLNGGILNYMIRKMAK
UniProt P08183, whole entry, looked up: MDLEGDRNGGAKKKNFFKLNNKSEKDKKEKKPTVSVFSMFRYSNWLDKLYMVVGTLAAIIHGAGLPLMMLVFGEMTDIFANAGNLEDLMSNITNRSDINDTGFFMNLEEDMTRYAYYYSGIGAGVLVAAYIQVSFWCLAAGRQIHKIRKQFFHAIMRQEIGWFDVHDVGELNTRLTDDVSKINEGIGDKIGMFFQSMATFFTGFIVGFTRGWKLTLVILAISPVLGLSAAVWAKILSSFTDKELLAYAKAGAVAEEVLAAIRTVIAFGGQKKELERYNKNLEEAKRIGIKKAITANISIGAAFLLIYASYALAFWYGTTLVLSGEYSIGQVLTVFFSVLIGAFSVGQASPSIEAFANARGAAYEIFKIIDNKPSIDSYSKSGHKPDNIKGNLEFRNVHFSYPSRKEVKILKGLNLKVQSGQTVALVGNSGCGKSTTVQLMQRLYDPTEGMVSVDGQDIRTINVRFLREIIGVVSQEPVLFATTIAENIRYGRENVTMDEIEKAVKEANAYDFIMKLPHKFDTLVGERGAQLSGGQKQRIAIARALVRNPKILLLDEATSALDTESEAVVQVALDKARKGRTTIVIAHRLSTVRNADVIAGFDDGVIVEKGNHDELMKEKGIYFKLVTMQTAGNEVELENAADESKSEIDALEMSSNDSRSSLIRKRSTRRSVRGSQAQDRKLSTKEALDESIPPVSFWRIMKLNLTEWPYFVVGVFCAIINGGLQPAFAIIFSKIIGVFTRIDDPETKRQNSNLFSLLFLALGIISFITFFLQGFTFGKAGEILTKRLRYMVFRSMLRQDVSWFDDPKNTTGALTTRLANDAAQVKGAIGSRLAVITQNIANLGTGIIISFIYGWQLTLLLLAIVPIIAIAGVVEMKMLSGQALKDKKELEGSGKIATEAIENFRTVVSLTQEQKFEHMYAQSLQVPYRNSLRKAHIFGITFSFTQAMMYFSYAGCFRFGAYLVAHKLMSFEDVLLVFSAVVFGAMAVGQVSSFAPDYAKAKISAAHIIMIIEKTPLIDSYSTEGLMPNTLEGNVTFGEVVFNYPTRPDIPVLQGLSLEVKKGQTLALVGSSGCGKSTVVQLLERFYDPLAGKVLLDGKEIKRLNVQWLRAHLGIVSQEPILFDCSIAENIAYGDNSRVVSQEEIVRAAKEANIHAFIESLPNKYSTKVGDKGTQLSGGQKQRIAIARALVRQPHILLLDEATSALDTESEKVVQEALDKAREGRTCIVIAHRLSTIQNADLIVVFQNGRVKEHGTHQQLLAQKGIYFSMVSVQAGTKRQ

[2] = compound: CC1=C(SC2=C1C(=N[C@H](C3=NN=C(N32)C)CC(=O)N)C4=CC=C(C=C4)Cl)C
In short: as §1

[3] = compound: CC1=C2C(=CC=C1)N=C(N(C2=O)C3=CC=CC=C3C)CN4C=NC5=C(N=CN=C54)N
In short: as §1

[4] = compound: Cc1sc2c(c1C)C(c1ccc(Cl)cc1)=N[C@@H](CC(=O)OC(C)(C)C)c1nnc(C)n1-2
In short: as §1

[5] = compound: c1ccc([C@@H]2C[C@H]2NC2CCNCC2)cc1
In short: as §1

Measured: log2 fold change

ABLIM1 (UniProt O14639)
inactive: [1] -0.073 | [2] -0.039 | [3] 0.102 | [4] -0.015 | [5] -0.011

ACBD6 (UniProt Q9BR61)
inactive: [1] -0.033 | [2] 0.087 | [3] 0.1 | [4] -0.072 | [5] 0.073

ACOX1 isoform 2 (UniProt Q15067)
inactive: [1] -0.002 | [2] 0.011 | [3] -0.001 | [4] -0.052 | [5] 0.014

ABCC4 (UniProt O15439)
inactive: [1] -0.012 | [2] 0.064 | [3] 0.051 | [4] -0.026 | [5] 0.026

ACTR1A (UniProt P61163)
inactive: [1] 0.025 | [2] 0.009 | [3] 0.025 | [4] 0.004 | [5] 0.002

ACTN1 (UniProt H9KV75)
inactive: [1] -0.036 | [2] 0.099 | [3] 0.166 | [4] -0.195 | [5] -0.076

ACACA isoform 4 (UniProt Q13085)
inactive: [1] -0.053 | [2] -0.031 | [3] 0.014 | [4] 0.088 | [5] 0.014

ABCF3 (UniProt Q9NUQ8)
inactive: [1] -0.047 | [2] -0.113 | [3] -0.05 | [4] 0.137 | [5] 0.031

ACSL5 isoform 3 (UniProt Q9ULC5)
inactive: [1] -0.024 | [2] 0.043 | [3] 0.101 | [4] 0.057 | [5] -0.178

ABHD14B (UniProt Q96IU4)
inactive: [1] -0.008 | [2] 0.078 | [3] 0.05 | [4] -0.068 | [5] -0.016

ACOT7 isoform 7 (UniProt O00154)
inactive: [1] 0.01 | [2] 0.028 | [3] 0.01 | [4] -0.056 | [5] 0.021

ABCB8 (UniProt Q9NUT2)
inactive: [1] -0.029 | [2] 0.075 | [3] 0.047 | [4] 0.015 | [5] -0.002

AASDHPPT (UniProt Q9NRN7)
inactive: [1] -0.031 | [2] 0.073 | [3] 0.076 | [4] 0.002 | [5] 0.008

AAK1, A0A096LP25
inactive: [1] -0.056 | [2] -0.041 | [3] -0.046 | [4] -0.024 | [5] 0.072

ABHD17A isoform 2 (UniProt Q96GS6)
inactive: [1] 0.029 | [2] 0.079 | [3] 0.122 | [4] -0.148 | [5] -0.012

ACSL3 (UniProt O95573)
inactive: [1] -0.05 | [2] 0.068 | [3] 0.028 | [4] -0.014 | [5] -0.036

ABCB7 isoform 2 (UniProt O75027)
inactive: [1] -0.003 | [2] 0.07 | [3] 0.03 | [4] -0.079 | [5] -0.018

ACP1 isoform 2 (UniProt P24666)
inactive: [1] -0.107 | [2] -0.028 | [3] 0.004 | [4] 0.028 | [5] 0.022

ABHD17B (UniProt Q5VST6)
inactive: [1] 0.043 | [2] 0.015 | [3] 0.032 | [4] -0.038 | [5] 0.022

Retrieved one by one from the entries so far, 2 records:
ACSL3 (UniProt O95573)
inactive: [1] -0.05 | [2] 0.068 | [3] 0.028 | [4] -0.014 | [5] -0.036

ACOT7 isoform 7 (UniProt O00154)
inactive: [1] 0.01 | [2] 0.028 | [3] 0.01 | [4] -0.056 | [5] 0.021

Carrying on.

ACAD8 (UniProt Q9UKU7)
inactive: [1] -0.015 | [2] 0.046 | [3] 0.036 | [4] -0.045 | [5] -0.005

ABCA7 (UniProt Q8IZY2)
inactive: [1] -0.254 | [2] 0.23 | [5] 0.188

ACO1 (UniProt P21399)
inactive: [1] 0.048 | [2] 0.018 | [3] 0.015 | [4] -0.005 | [5] 0.007

ABCA8 isoform 3 (UniProt O94911)
inactive: [1] -0.201 | [4] -0.098

ACSL6 isoform 1 (UniProt Q9UKU0)
inactive: [1] 0.012 | [3] 0.29 | [4] -0.009

ABCB1 (UniProt P08183)
inactive: [2] 0.088 | [4] 0.04 | [5] -0.071

— the supplement of paper PMC10849652
